Measured values as given in the supplement of paper PMC11006884.
Only a part is listed here, and it is no random draw. Single values of this set are uncertain.

Chains of the proteins cited; added tags and fusions are not shown. Lines headed by an entry give the natural chain unless they say otherwise; changes in a name come on top.
UniProt Q03252: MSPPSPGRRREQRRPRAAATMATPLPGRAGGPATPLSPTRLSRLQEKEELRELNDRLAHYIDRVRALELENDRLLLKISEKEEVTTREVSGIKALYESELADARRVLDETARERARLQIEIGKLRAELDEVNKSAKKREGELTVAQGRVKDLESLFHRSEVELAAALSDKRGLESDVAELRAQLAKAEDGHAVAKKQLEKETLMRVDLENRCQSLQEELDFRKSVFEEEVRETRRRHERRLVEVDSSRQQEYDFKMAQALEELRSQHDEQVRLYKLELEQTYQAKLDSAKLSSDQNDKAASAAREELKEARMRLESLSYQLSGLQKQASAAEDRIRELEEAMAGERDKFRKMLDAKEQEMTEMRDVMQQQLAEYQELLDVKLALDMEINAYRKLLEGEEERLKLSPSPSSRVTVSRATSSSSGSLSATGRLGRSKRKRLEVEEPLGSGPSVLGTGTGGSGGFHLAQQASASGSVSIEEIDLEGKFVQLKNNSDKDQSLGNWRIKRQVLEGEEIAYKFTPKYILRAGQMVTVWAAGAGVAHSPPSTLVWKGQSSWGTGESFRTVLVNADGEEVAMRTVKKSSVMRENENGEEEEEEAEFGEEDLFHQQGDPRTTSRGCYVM
UniProt Q04637, whole entry, looked up: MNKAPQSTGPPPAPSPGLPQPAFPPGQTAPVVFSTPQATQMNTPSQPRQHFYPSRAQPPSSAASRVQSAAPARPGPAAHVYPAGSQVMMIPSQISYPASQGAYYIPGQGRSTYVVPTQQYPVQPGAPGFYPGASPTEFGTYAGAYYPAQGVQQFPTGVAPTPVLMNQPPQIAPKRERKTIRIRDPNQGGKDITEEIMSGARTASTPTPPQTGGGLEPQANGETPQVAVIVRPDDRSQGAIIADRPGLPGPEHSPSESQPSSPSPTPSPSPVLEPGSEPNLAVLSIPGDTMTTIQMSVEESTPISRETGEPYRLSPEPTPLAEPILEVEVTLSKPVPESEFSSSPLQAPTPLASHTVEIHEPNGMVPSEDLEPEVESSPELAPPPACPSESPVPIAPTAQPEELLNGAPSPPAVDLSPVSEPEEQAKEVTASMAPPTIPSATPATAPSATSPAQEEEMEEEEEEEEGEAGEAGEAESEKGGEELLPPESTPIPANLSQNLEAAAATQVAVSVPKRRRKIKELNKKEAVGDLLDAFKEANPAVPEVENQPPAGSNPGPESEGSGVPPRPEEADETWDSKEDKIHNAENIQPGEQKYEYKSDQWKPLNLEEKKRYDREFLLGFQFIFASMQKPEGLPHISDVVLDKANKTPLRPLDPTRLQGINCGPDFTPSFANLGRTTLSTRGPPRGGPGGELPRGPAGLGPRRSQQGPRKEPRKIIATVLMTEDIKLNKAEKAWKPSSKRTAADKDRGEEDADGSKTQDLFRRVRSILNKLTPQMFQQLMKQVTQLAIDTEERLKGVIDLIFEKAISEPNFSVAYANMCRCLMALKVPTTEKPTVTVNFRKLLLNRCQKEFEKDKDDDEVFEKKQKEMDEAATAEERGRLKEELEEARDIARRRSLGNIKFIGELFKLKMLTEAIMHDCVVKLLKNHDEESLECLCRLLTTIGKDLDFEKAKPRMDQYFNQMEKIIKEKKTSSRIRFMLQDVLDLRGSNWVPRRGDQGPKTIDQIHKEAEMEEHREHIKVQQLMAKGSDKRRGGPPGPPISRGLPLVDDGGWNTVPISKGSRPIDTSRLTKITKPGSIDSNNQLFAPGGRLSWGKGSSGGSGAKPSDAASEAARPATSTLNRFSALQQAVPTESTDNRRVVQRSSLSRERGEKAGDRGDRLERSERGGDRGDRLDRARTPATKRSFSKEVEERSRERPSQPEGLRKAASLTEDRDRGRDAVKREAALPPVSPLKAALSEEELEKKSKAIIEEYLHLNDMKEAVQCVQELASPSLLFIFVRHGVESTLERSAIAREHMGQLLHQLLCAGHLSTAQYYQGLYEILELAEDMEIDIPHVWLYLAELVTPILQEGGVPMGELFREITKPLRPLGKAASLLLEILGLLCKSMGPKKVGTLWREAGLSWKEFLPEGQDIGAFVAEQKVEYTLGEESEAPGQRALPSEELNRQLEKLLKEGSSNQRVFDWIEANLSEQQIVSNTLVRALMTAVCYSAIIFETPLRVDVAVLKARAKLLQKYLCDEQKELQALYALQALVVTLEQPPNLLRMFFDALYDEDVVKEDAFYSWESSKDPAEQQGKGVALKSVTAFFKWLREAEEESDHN
UniProt Q13111, whole entry, looked up: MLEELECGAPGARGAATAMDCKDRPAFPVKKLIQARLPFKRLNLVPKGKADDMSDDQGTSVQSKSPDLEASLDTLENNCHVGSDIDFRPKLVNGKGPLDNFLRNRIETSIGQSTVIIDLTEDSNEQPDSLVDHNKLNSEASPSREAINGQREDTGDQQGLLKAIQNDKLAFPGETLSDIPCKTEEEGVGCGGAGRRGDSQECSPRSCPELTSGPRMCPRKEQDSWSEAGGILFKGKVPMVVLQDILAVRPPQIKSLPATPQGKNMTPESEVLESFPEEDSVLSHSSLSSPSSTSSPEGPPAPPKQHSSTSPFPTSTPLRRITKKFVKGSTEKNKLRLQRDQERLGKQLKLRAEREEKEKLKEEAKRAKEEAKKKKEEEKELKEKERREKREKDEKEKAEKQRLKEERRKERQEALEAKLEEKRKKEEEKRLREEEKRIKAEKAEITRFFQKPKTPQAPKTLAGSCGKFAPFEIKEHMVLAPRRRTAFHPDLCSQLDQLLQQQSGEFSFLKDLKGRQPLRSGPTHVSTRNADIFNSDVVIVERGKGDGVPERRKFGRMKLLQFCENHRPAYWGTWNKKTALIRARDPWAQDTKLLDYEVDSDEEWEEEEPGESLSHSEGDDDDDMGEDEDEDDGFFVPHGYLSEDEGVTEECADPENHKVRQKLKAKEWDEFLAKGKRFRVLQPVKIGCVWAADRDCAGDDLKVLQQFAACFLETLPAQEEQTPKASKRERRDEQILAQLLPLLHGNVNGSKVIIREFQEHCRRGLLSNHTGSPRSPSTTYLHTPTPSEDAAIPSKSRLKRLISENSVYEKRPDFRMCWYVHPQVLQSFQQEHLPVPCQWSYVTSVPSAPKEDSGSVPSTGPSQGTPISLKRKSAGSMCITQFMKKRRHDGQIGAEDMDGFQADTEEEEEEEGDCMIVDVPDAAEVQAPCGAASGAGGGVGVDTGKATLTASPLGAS
UniProt Q12849: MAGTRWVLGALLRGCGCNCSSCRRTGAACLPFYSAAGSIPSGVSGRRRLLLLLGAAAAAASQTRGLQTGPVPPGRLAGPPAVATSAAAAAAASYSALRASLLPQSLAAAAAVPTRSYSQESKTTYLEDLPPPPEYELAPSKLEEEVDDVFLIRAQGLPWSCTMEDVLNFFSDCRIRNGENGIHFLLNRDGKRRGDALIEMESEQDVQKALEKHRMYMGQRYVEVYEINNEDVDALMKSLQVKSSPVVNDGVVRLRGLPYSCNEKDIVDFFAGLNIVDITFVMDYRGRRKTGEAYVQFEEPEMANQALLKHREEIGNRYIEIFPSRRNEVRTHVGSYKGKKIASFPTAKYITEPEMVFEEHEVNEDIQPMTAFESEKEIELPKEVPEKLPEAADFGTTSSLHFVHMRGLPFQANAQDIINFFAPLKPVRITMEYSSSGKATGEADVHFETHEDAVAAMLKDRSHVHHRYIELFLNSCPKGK
UniProt Q13185: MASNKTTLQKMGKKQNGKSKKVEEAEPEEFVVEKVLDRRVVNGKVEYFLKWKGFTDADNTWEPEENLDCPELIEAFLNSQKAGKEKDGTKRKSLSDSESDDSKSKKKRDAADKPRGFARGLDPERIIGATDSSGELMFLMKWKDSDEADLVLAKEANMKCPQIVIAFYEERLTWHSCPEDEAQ
UniProt Q08J23, whole entry, looked up: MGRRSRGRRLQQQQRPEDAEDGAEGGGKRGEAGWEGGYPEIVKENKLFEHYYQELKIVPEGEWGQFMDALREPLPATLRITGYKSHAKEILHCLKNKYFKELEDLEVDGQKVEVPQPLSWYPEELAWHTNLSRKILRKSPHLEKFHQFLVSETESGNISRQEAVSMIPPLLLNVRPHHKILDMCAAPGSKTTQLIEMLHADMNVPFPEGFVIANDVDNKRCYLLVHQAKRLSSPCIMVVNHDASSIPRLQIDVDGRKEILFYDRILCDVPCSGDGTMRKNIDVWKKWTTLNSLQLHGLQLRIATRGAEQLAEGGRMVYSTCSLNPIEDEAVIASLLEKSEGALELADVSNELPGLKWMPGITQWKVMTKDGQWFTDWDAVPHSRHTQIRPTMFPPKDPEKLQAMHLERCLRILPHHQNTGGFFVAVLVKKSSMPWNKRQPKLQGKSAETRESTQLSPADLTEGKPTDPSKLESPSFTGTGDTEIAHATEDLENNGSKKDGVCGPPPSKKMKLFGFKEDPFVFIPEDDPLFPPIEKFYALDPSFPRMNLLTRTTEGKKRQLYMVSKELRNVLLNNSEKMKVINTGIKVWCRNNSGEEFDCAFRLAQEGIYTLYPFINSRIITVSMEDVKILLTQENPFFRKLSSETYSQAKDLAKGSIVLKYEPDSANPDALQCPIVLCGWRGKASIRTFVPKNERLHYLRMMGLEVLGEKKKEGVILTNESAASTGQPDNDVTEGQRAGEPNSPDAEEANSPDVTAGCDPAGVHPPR
UniProt Q07157: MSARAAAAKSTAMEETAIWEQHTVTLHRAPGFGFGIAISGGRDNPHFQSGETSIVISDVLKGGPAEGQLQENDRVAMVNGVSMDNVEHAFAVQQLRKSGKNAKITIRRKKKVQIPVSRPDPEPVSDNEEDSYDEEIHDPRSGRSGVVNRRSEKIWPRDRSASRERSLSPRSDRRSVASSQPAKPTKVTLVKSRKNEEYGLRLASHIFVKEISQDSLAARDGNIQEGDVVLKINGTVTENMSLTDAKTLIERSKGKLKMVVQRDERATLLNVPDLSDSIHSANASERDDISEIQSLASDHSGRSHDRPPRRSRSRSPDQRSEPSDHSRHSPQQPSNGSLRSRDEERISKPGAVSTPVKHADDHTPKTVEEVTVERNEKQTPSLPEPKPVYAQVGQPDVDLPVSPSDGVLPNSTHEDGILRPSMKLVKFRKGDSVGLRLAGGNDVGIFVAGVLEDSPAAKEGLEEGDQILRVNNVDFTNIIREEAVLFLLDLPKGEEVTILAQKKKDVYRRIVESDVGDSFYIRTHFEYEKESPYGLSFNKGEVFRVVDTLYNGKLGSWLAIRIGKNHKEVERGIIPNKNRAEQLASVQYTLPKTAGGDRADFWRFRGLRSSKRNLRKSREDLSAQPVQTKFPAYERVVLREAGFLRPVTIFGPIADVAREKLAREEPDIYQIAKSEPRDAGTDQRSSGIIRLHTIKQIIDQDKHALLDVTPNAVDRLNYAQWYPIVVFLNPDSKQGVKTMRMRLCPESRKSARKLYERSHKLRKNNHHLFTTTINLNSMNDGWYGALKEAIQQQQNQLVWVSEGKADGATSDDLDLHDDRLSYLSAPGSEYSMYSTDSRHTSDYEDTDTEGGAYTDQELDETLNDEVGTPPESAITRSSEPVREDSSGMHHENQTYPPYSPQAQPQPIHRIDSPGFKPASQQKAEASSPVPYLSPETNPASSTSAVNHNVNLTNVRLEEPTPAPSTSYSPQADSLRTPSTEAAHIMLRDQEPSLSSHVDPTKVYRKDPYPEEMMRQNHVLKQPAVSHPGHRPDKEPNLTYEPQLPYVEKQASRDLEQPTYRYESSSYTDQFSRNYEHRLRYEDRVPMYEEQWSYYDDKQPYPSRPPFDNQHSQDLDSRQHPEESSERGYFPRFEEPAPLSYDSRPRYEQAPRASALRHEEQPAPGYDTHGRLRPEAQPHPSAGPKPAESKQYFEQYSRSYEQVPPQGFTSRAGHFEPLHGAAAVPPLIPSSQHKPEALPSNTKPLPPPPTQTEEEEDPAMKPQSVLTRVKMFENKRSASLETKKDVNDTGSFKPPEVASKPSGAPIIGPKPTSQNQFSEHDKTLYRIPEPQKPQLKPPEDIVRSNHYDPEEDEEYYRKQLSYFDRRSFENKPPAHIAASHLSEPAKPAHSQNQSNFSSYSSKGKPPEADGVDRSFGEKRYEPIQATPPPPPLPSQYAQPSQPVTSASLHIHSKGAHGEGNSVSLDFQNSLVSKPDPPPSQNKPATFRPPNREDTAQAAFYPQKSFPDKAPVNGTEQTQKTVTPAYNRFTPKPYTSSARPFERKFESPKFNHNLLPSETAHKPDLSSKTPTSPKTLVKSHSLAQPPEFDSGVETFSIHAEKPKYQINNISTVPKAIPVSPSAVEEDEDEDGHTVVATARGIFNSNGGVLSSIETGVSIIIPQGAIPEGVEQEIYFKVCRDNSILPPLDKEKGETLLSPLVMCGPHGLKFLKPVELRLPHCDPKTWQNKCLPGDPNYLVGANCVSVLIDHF

Compound: COC(=O)/C=C/c1ccccc1 [methyl cinnamate]
Test: log2 ratio of iodoacetamide-alkyne labeling of the cysteine site, DMSO over compound (competition); higher = stronger covalent engagement of the cysteine by the compound, active = 1 or more
Conditions: 500 µM; treatment time 1 h; system: HEK293T cell lysate
Summary of the method: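 HEK293T lysate at 2 mg/mL was treated with vehicle or electrophile (500 µM) for 1 h at ambient temperature, then labelled with iodoacetamide alkyne (1 h), clicked to sCIP-TMT reagents, pooled, digested with trypsin overnight at 37 °C, enriched on streptavidin and eluted with acid. Peptides were analysed by Orbitrap Eclipse LC-MS/MS with FAIMS and quantified in FragPipe, using duplicate channels and three replicates, with cysteines quantified in only one replicate excluded. The log2 competition ratio for each cysteine is the mean control-channel reporter intensity divided by the mean compound-channel reporter intensity.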

log2 ratio of iodoacetamide-alkyne labeling, inactive:
LMNB2 C212 (UniProt Q03252) 0.16, EIF4G1 C819 (UniProt Q04637) 0.0622, CHAF1A C207 (UniProt Q13111) 0.264, GFPT1 C2 (UniProt Q06210) 0.114, GRSF1 C29 (UniProt Q12849) 0.204, CBX3 C69 (UniProt Q13185) 0.099, POLE C2148 (UniProt Q07864) -0.109, AHNAK C1900 (UniProt Q09666) 0.288, ILF3 C203 (UniProt Q12906) 0.107, CHAF1A C181 (UniProt Q13111) -0.0613, NSUN2 C502 (UniProt Q08J23) 0.58, GTF3C1 C42 (UniProt Q12789) 0.298, DST C4439 (UniProt Q03001) 0.331, TJP1 C1740 (UniProt Q07157) 0.25, UniProt Q12824_C167 -0.159
